The target in one assay is T1, V5-tagged Integrin α8 (UniProt A2ARA8).
T1 sequence: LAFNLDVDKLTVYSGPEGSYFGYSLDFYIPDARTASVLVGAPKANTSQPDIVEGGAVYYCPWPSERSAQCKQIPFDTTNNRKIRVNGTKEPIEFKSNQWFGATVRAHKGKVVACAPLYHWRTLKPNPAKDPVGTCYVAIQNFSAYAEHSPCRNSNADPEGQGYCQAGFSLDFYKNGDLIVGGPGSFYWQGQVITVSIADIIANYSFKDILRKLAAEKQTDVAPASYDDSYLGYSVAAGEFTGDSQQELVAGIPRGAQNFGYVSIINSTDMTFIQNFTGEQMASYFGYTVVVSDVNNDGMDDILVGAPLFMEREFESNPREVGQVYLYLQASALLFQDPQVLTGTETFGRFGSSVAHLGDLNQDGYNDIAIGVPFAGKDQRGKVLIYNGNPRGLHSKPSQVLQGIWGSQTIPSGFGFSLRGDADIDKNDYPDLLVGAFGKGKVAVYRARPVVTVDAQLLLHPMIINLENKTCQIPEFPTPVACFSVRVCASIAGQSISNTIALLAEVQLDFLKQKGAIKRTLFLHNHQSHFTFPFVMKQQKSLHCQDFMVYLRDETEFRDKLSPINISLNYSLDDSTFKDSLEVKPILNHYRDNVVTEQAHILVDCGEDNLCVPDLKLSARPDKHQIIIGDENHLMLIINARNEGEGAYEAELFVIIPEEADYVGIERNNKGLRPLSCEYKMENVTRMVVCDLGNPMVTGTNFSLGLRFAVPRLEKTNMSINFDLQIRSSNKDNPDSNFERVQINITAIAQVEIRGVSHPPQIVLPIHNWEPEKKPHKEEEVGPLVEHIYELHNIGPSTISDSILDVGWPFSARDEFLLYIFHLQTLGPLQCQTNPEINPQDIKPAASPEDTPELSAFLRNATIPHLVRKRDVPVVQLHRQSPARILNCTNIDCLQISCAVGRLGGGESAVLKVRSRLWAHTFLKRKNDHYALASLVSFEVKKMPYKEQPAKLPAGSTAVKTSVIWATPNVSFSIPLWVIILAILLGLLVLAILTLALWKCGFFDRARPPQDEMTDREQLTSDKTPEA
The experiment in a line: co-IP; HEK293T cells transiently transfected with V5-tagged Integrin α8 or Integrin β1 and Flag-tagged Ism1 or Ism1 truncations; lysate with sonication, antibody 4-6 h at 4 °C, Protein A- or G-agarose overnight; Western blotting. In general terms: Immunoblotting shows a protein as a band on a membrane.

Assay [1] concerns the target T2, Integrin α8, endogenous in E11.5 wild-type mouse kidney (mouse (endogenous in E11.5 kidney)) (UniProt A2ARA8).
T2 sequence: T1 sequence
The assay is described as follows: proximity ligation; in situ PLA (Duolink) on cryosections of E11.5 wild-type mouse kidney rudiments; rabbit anti-Ism1 and goat anti-Integrin α8; negative control anti-Integrin α8 and rabbit IgG.

For 2 molecules, binding results are on record in article PMC10130008.

These are yes or no findings as the source states them, for the method shown. Binding seen in cells or lysates may run through a third protein. Some entries that bind do so weakly or less than the wild type. For some assays here: Sequences can lack the tags named with a protein.

B1: Flag-tagged recombinant Ism1 (Isthmin-1), full-length (protein, UniProt A2ATD1 30-454)
chain: SDRQDAAAGNNNLNLESDSTSETSFPLSKEAPEEHQVVHQPFPRQRFPPETGHPSLQRDGPRSFLLDLPNFPDLSKADINGQNPNIQVTIEVVDGPDSEAEKDQHPENKPSWSLPAPDWRAWWQRSLSLARTNSGDQDDKYDSTSDDSNFLSVPRGWDRPAPGHRTFETKEQPEYDSTDGEGDWSLWSVCSVTCGNGNQKRTRSCGYACIATESRTCDRPNCPGIEDTFRTAATEVSLLAGSEEFNATKLFEVDMDSCERWMSCKSEFLKKYMHKVINDLPSCPCSYPTEVAYSTADIFDRIKRKDFRWKDASGPKEKLEIYKPTARYCIRSMLSLESTTLAAQHCCYGDNMQLITRGKGAGTPNLISTEFSAELHYKVDVLPWIICKGDWSRYNEARPPNNGQKCTESPSDEDYIKQFQEAREY
As for B1, in the assay with V5-tagged Integrin α8, the binding result is “binds”.

B2: Ism1 (Isthmin-1), endogenous in E11.5 wild-type mouse kidney (protein, UniProt A2ATD1 30-454)
chain: B1 chain
On to B2, for which, in assay [1], the binding result was “binds”.
